# Measurements as given in patent publication US11213494B2 (priority 2016, dated 2022).
# Tested on: Mecp2 Het mice
# Assay: Prepulse inhibition (PPI) of the acoustic startle response
# Assay type: in vivo
# Conditions: ketamine 8 mg/kg
# Protocol: Prepulse inhibition (PPI) of the acoustic startle response (ASR) was measured to assess sensorimotor gating function using Med Associates Startle Response recording system. Mice were divided into four groups (Het ketamine, Het vehicle, Wt ketamine, Wt vehicle), and received injections of either ketamine (8 mg/kg) or an equivalent amount of saline immediately before they were placed individually inside a small-sized, nonrestrictive, cubical Plexiglas recording chamber [2.5 inches (L)×2.5 inches (W)×1.75 inches (H)] fixed on an accelerometer platform and allowed to acclimate for 5 min. Subsequently, the mouse was exposed to 4 testing blocks. In the first testing block, the initial startle response amplitude was determined by delivering a 40 ms pulse of 120 dB broadband white noise and recording the maximum startle amplitude (Vmax). A baseline startle response was determined by repeating this recording paradigm for six consecutive trials (with 8-23 s between each stimulus) and calculating the average Vmax measured in those trials. […] The Vmax measured from each prepulse-pulse trial was compared with the Vmax measured from the 120 dB pulse-only trials, and a percentage prepulse inhibition (% PPI) was calculated for each prepulse intensity. […]
smiles,measurement,setting,value
CNC1(c2ccccc2Cl)CCCCC1=O (centres unmarked) [ketamine],Startle amplitude (acoustic startle alone),Het mice,862.7±149.5
same,Startle amplitude (acoustic startle alone),Wt mice,798.6±106.3
